From paper PMC5101391 come the findings set out here.

In test [1] the target is T1, TRAF-interacting protein (TRIP), wild type, stably overexpressed in RA-FLS by lentivirus (UniProt Q9BWF2).
T1 sequence: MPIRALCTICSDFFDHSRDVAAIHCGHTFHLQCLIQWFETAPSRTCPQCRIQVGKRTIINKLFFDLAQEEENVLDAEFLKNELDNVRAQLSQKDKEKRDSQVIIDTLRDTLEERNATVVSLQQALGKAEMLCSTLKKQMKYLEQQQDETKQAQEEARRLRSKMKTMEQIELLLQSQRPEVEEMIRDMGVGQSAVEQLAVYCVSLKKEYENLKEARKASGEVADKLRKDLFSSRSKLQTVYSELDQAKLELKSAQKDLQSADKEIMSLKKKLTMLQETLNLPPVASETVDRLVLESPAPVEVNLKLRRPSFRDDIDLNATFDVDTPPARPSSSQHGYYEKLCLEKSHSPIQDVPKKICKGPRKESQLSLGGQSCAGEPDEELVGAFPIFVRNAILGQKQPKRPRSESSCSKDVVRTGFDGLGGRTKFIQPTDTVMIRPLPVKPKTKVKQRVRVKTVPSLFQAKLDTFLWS
Put plainly: co-IP; extracts of RA-FLS (RA-FLS-Ctrl or RA-FLS-TRIP), unstimulated or stimulated with TNFα (100 ng/mL) for various times, with proteasome inhibitor Mg132; immunoprecipitation with anti-TRIP or control IgG and protein G Plus-Agarose for 5 hours, immunoblot for TAK1. On the technique in general: In western blotting, separated proteins are transferred to a membrane and probed.

Test [2] has as its target T2, TRAF-interacting protein (TRIP), endogenous in RA-FLS-Ctrl cells (human (endogenous in RA-FLS)) (UniProt Q9BWF2).
T2 sequence: T1 sequence
Described as above.

Results are given in words; binding and its absence hold for the method and conditions named. Binding seen in cells or lysates may run through a third protein. Some binding calls cover weakened binding; strength is not graded here.

B1: transforming growth factor β-activated kinase 1 (TAK1) (protein, UniProt O43318 1-606)
chain: MSTASAASSSSSSSAGEMIEAPSQVLNFEEIDYKEIEVEEVVGRGAFGVVCKAKWRAKDVAIKQIESESERKAFIVELRQLSRVNHPNIVKLYGACLNPVCLVMEYAEGGSLYNVLHGAEPLPYYTAAHAMSWCLQCSQGVAYLHSMQPKALIHRDLKPPNLLLVAGGTVLKICDFGTACDIQTHMTNNKGSAAWMAPEVFEGSNYSEKCDVFSWGIILWEVITRRKPFDEIGGPAFRIMWAVHNGTRPPLIKNLPKPIESLMTRCWSKDPSQRPSMEEIVKIMTHLMRYFPGADEPLQYPCQYSDEGQSNSATSTGSFMDIASTNTSNKSDTNMEQVPATNDTIKRLESKLLKNQAKQQSESGRLSLGASRGSSVESLPPTSEGKRMSADMSEIEARIAATTAYSKPKRGHRKTASFGNILDVPEIVISGNGQPRRRSIQDLTVTGTEPGQVSSRSSSPSVRMITTSGPTSEKPTRSHPWTPDDSTDTNGSDNSIPMAYLTLDHQLQPLAPCPNSKESMAVFEQHCKMAQEYMKVQTEIALLLQRKQELVAELDQDEKDQQNTSRLVQEHKKLLDENKSLSTYYQQCKKQLEVIRSQQQKRQGTS
For B1, the binding result is listed as “binds” in test [1] and “binds weakly” in test [2].
